Data from the supplement of paper PMC4604168 (melanoma cell lines).
The other results are listed elsewhere or left out. Many values rest on one well or one pass, so single values are uncertain.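 The apoptosis fraction was the count of cleaved-PARP antibody-stained nuclei relative to all DNA-stained nuclei, imaged in 1,536-well plates. Screening doses were set so most cells survived, and baseline and induced cleaved-PARP levels vary greatly across cell lines.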

Test system: CBRC017 (line from a melanoma biopsy)
Experiment: cleaved PARP positive nuclei fraction relative to DMSO control; melanoma cells; higher = more apoptosis
Conditions: library dose: low library concentration; 72 h

Row | Structure (SMILES) | cleaved PARP positive nuclei fraction [%]
1 | CN(NC(=O)CC(=O)NN(C)C(=S)c1ccccc1)C(=S)c1ccccc1 + CCCCCCCCCCCC1=C(O)C(=O)C=C(O)C1=O [Embelin] (first compound 0.006 µM, partner dose 1.2 µM) | 136
2 | COc1ccc2c(c1)CCC1C2CCC2(C)C(NCCCCCCN3C(=O)C=CC3=O)CCC12 (stereo unspecified) + O=c1cc(-c2cccc3c2Sc2ccccc2S3)oc(N2CCOCC2)c1 [KU55933] (first compound 0.4 µM, partner dose 1 µM) | 85.3
3 | COc1ccc2c(c1)CCC1C2CCC2(C)C(NCCCCCCN3C(=O)C=CC3=O)CCC12 (stereo unspecified) + Oc1nc(-c2ccc(C(F)(F)F)cc2)nc2c1CSCC2 [XAV939] (first compound 0.4 µM, partner dose 2 µM) | 104
4 | O=C(O)c1ccc(-c2c[nH]c3ncc(-c4ccccc4)cc23)cc1C1CCCC1 + COc1ccc2c(c1)CCC1C2CCC2(C)C(NCCCCCCN3C(=O)C=CC3=O)CCC12 [U73122] (first compound 0.16 µM, partner dose 0.4 µM) | 119
5 | CCc1ccc(CCOc2ccc(CC3SC(=O)NC3=O)cc2)nc1 (stereo unspecified) [pioglitazone] + Oc1nc(-c2ccc(C(F)(F)F)cc2)nc2c1CSCC2 [XAV939] (first compound 2 µM, partner dose 2 µM) | 79.5
6 | COc1cc2c(Oc3ccc4[nH]c(C)cc4c3F)ncnc2cc1OCCCN1CCCC1 [cediranib] + COc1cc2ncnc(Nc3ccc(Oc4ccccc4)cc3)c2cc1OC [SrcI1] (first compound 0.4 µM, partner dose 2 µM) | 84.3
7 | N#Cc1c(O)c2c(-c3ccc(-c4ccccc4O)cc3)csc2[nH]c1=O + COc1cc2ncnc(Nc3ccc(Oc4ccccc4)cc3)c2cc1OC [SrcI1] (first compound 2 µM, partner dose 2 µM) | 73.7
8 | CN(NC(=O)CC(=O)NN(C)C(=S)c1ccccc1)C(=S)c1ccccc1 + CC(C)CCN1c2nc(Nc3cc(F)c(O)c(F)c3)ncc2N(C)C(=O)C1C [BID1870] (first compound 0.006 µM, partner dose 0.2 µM) | 138
9 | CCc1ccc(CCOc2ccc(CC3SC(=O)NC3=O)cc2)nc1 (stereo unspecified) [pioglitazone] + N#Cc1c(O)c2c(-c3ccc(-c4ccccc4O)cc3)csc2[nH]c1=O [A769662] (first compound 2 µM, partner dose 2 µM) | 150
10 | Oc1nc(-c2ccc(C(F)(F)F)cc2)nc2c1CSCC2 + CCCCCCCCCCCC1=C(O)C(=O)C=C(O)C1=O [Embelin] (first compound 2 µM, partner dose 1.2 µM) | 106
11 | CCN(CC)CCCCNc1ncc2cc(-c3cc(OC)cc(OC)c3)c(NC(=O)NC(C)(C)C)nc2n1 + Cn1cc(/C=C2\C(=O)Nc3cccnc32)c2ccccc21 [GW441756] (first compound 0.1 µM, partner dose 0.4 µM) | 72.4
12 | CCc1ccc(CCOc2ccc(CC3SC(=O)NC3=O)cc2)nc1 (stereo unspecified) [pioglitazone] + Cn1cc(/C=C2\C(=O)Nc3cccnc32)c2ccccc21 [GW441756] (first compound 2 µM, partner dose 0.4 µM) | 149
13 | COc1ccc(COc2ccc(Cc3cnc(N)nc3N)cc2OC)cc1 + COc1cc2ncnc(Nc3ccc(Oc4ccccc4)cc3)c2cc1OC [SrcI1] (first compound 1 µM, partner dose 2 µM) | 90.6
14 | O=S(=O)(c1ccccc1)N(CC(F)(F)F)c1ccc(C(O)(C(F)(F)F)C(F)(F)F)cc1 + COc1cc2ncnc(Nc3ccc(Oc4ccccc4)cc3)c2cc1OC [SrcI1] (first compound 1.4 µM, partner dose 2 µM) | 114
15 | COc1ccc2c(c1)CCC1C2CCC2(C)C(NCCCCCCN3C(=O)C=CC3=O)CCC12 (stereo unspecified) + Cn1cc(/C=C2\C(=O)Nc3cccnc32)c2ccccc21 [GW441756] (first compound 0.4 µM, partner dose 0.4 µM) | 94.7
16 | CN(NC(=O)CC(=O)NN(C)C(=S)c1ccccc1)C(=S)c1ccccc1 + Cc1cc([N+](=O)[O-])ccc1NS(=O)(=O)c1cc(Cl)ccc1Cl [FH535] (first compound 0.006 µM, partner dose 1 µM) | 2710
17 | N#Cc1c(O)c2c(-c3ccc(-c4ccccc4O)cc3)csc2[nH]c1=O + c1cc(-c2cnn3cc(-c4ccc(OCCN5CCCCC5)cc4)cnc23)ccn1 [Dorsomorphin] (first compound 2 µM, partner dose 0.4 µM) | 78.9
18 | CCc1ccc(CCOc2ccc(CC3SC(=O)NC3=O)cc2)nc1 (stereo unspecified) [pioglitazone] + COc1ccc(COc2ccc(Cc3cnc(N)nc3N)cc2OC)cc1 [GW2580] (first compound 2 µM, partner dose 1 µM) | 80.5

Row | Structure (SMILES) | cleaved PARP positive nuclei fraction [%]
19 | COc1cc2c(Oc3ccc4[nH]c(C)cc4c3F)ncnc2cc1OCCCN1CCCC1 [cediranib] + CCc1ccc(CCOc2ccc(CC3SC(=O)NC3=O)cc2)nc1 [pioglitazone] (first compound 0.4 µM, partner dose 2 µM) | 91.8
20 | COc1ccc(-c2ccc3c(N4CCOCC4)nc(N4C[C@@H](C)O[C@@H](C)C4)nc3n2)cc1CO + COc1cc2ncnc(Nc3ccc(Oc4ccccc4)cc3)c2cc1OC [SrcI1] (first compound 0.02 µM, partner dose 2 µM) | 114
21 | O=C(O)c1ccc(-c2c[nH]c3ncc(-c4ccccc4)cc23)cc1C1CCCC1 + O=S(=O)(c1ccccc1)N(CC(F)(F)F)c1ccc(C(O)(C(F)(F)F)C(F)(F)F)cc1 [T0901317] (first compound 0.16 µM, partner dose 1.4 µM) | 90.5
22 | COc1ccc(-c2ccc3c(N4CCOCC4)nc(N4C[C@@H](C)O[C@@H](C)C4)nc3n2)cc1CO + CCN(CC)CCCCNc1ncc2cc(-c3cc(OC)cc(OC)c3)c(NC(=O)NC(C)(C)C)nc2n1 [PD173074] (first compound 0.02 µM, partner dose 0.1 µM) | 132
23 | Oc1cc(-c2nc(-c3ccccc3)[nH]c2-c2ccncc2)ccc1Cl + O=C1NC(=O)/C(=C/c2ccc(-c3ccc(F)cc3O)o2)S1 [AS252424] (first compound 0.2 µM, partner dose 1 µM) | 138
24 | CCc1ccc(CCOc2ccc(CC3SC(=O)NC3=O)cc2)nc1 (stereo unspecified) [pioglitazone] + O=C(Nc1ccccc1)c1cc([N+](=O)[O-])ccc1Cl [GW9662] (first compound 2 µM, partner dose 2 µM) | 175
25 | COc1ccc2c(c1)CCC1C2CCC2(C)C(NCCCCCCN3C(=O)C=CC3=O)CCC12 (stereo unspecified) + O=C(O)C(=O)Nc1sc2c(c1C(=O)O)CCNC2 [TCS401] (first compound 0.4 µM, partner dose 1.66667 µM) | 87.4
26 | CN(C)S(=O)(=O)c1ccc2c(c1)/C(=C/c1cc3c([nH]1)CCCC3)C(=O)N2 + COc1cc(N2CCC(N3CCN(C)CC3)CC2)ccc1Nc1ncc(Cl)c(Nc2ccccc2S(=O)(=O)C(C)C)n1 [NVP-TAE684] (first compound 0.4 µM, partner dose 0.08 µM) | 87.6
27 | CN(C)S(=O)(=O)c1ccc2c(c1)/C(=C/c1cc3c([nH]1)CCCC3)C(=O)N2 + N#Cc1c(O)c2c(-c3ccc(-c4ccccc4O)cc3)csc2[nH]c1=O [A769662] (first compound 0.4 µM, partner dose 2 µM) | 199
28 | COc1ccc2c(c1)CCC1C2CCC2(C)C(NCCCCCCN3C(=O)C=CC3=O)CCC12 (stereo unspecified) + CC(C)CCN1c2nc(Nc3cc(F)c(O)c(F)c3)ncc2N(C)C(=O)C1C [BID1870] (first compound 0.4 µM, partner dose 0.2 µM) | 110
29 | CCc1ccc(CCOc2ccc(CC3SC(=O)NC3=O)cc2)nc1 (stereo unspecified) [pioglitazone] + Oc1cc(-c2nc(-c3ccccc3)[nH]c2-c2ccncc2)ccc1Cl [L779450] (first compound 2 µM, partner dose 0.2 µM) | 100
30 | CCc1ccc(CCOc2ccc(CC3SC(=O)NC3=O)cc2)nc1 (stereo unspecified) [pioglitazone] + CC(C)CCN1c2nc(Nc3cc(F)c(O)c(F)c3)ncc2N(C)C(=O)C1C [BID1870] (first compound 2 µM, partner dose 0.2 µM) | 119
31 | CN(NC(=O)CC(=O)NN(C)C(=S)c1ccccc1)C(=S)c1ccccc1 + O=c1cc(-c2cccc3c2Sc2ccccc2S3)oc(N2CCOCC2)c1 [KU55933] (first compound 0.006 µM, partner dose 1 µM) | 141
32 | O=C(O)c1ccc(-c2c[nH]c3ncc(-c4ccccc4)cc23)cc1C1CCCC1 + Oc1nc(-c2ccc(C(F)(F)F)cc2)nc2c1CSCC2 [XAV939] (first compound 0.16 µM, partner dose 2 µM) | 91.5
33 | COc1ccc(COc2ccc(Cc3cnc(N)nc3N)cc2OC)cc1 + COc1cc(N2CCC(N3CCN(C)CC3)CC2)ccc1Nc1ncc(Cl)c(Nc2ccccc2S(=O)(=O)C(C)C)n1 [NVP-TAE684] (first compound 1 µM, partner dose 0.08 µM) | 34.5
34 | COc1ccc2c(c1)CCC1C2CCC2(C)C(NCCCCCCN3C(=O)C=CC3=O)CCC12 (stereo unspecified) + c1cc(-c2cnn3cc(-c4ccc(OCCN5CCCCC5)cc4)cnc23)ccn1 [Dorsomorphin] (first compound 0.4 µM, partner dose 0.4 µM) | 177
35 | NCC(=O)Nc1ccc(-n2nc(C(F)(F)F)cc2-c2ccc3c(ccc4ccccc43)c2)cc1 + COc1ccc(COc2ccc(Cc3cnc(N)nc3N)cc2OC)cc1 [GW2580] (first compound 1 µM, partner dose 1 µM) | 75.8
36 | COc1cc2ncnc(Nc3ccc(Oc4ccccc4)cc3)c2cc1OC + COc1cc(N2CCC(N3CCN(C)CC3)CC2)ccc1Nc1ncc(Cl)c(Nc2ccccc2S(=O)(=O)C(C)C)n1 [NVP-TAE684] (first compound 2 µM, partner dose 0.08 µM) | 98.9

A different layout for part of the listing above.

| Row | Structure (SMILES) | cleaved PARP positive nuclei fraction [%] |
| --- | --- | --- |
| 19 | COc1cc2c(Oc3ccc4[nH]c(C)cc4c3F)ncnc2cc1OCCCN1CCCC1 [cediranib] + CCc1ccc(CCOc2ccc(CC3SC(=O)NC3=O)cc2)nc1 [pioglitazone] (first compound 0.4 µM, partner dose 2 µM) | 91.8 |
| 20 | COc1ccc(-c2ccc3c(N4CCOCC4)nc(N4C[C@@H](C)O[C@@H](C)C4)nc3n2)cc1CO + COc1cc2ncnc(Nc3ccc(Oc4ccccc4)cc3)c2cc1OC [SrcI1] (first compound 0.02 µM, partner dose 2 µM) | 114 |
| 21 | O=C(O)c1ccc(-c2c[nH]c3ncc(-c4ccccc4)cc23)cc1C1CCCC1 + O=S(=O)(c1ccccc1)N(CC(F)(F)F)c1ccc(C(O)(C(F)(F)F)C(F)(F)F)cc1 [T0901317] (first compound 0.16 µM, partner dose 1.4 µM) | 90.5 |
| 22 | COc1ccc(-c2ccc3c(N4CCOCC4)nc(N4C[C@@H](C)O[C@@H](C)C4)nc3n2)cc1CO + CCN(CC)CCCCNc1ncc2cc(-c3cc(OC)cc(OC)c3)c(NC(=O)NC(C)(C)C)nc2n1 [PD173074] (first compound 0.02 µM, partner dose 0.1 µM) | 132 |
| 23 | Oc1cc(-c2nc(-c3ccccc3)[nH]c2-c2ccncc2)ccc1Cl + O=C1NC(=O)/C(=C/c2ccc(-c3ccc(F)cc3O)o2)S1 [AS252424] (first compound 0.2 µM, partner dose 1 µM) | 138 |
| 24 | CCc1ccc(CCOc2ccc(CC3SC(=O)NC3=O)cc2)nc1 (stereo unspecified) [pioglitazone] + O=C(Nc1ccccc1)c1cc([N+](=O)[O-])ccc1Cl [GW9662] (first compound 2 µM, partner dose 2 µM) | 175 |
